According to publication PMC7440846:

biological target: T1, LexA (UniProt P0A7C2); experiment: EMSA; conditions: 100 and 500 nM LexA, 50 nM probe, 10 mM Mg2+, 70 mM Tris-HCl pH 7.6, 150 mM NaCl, 10 mM MgCl2, 1 mM DTT, 5% glycerol, 10 ng/ul sonicated salmon sperm DNA, 5 min, room temperature, recombinant protein, label: 5' IRDye 700 on strand 1
T1 sequence (looked up, limits assumed): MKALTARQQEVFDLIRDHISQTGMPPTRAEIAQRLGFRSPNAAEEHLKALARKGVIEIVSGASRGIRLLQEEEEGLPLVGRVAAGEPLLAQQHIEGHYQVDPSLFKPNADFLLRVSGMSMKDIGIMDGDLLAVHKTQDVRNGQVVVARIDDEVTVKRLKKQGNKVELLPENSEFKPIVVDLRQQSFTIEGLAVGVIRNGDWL

Row | Sequence | binding result
1 | AATGCCTGCGGATACCGTATATATATACAGTATCAATTCTGGCT (double strand) [op-L (T>C in one half-site)] | binds more weakly
2 | AATGCCTGCGGATACTGTATATATATACAGTATCAATTCTGGCT (double strand) [op+ / cons (consensus LexA operator)] | binds
3 | AATGCCTGCGGATACCGTATATATATACGGTATCAATTCTGGCT (double strand) [op-LR (T>C in both half-sites)] | binds more weakly

Construct, isoform or probe ends are uncertain for at least one entry. A weaker result is weaker than the reference pair of the same experiment. At least one verdict was read from the data and is not stated in words by the source. Protein sequences can lack the tags named with them.
